Data on four molecules can be found in publication PMC9037272.

These are yes or no findings as the source states them, for the method shown. In cells and extracts the contact can be indirect. These calls come from enrichment with a bait or labelling near it, and not all partners need be listed.

Sequences and labels used below:
B1: CCT7, endogenous in S2 cells (protein, UniProt Q9VHL2 1-544)
chain: MQPQIVLLKEGTDSSQGKPQLVSNINACQSIVDAVRTTLGPRGMDKLIVDAHGKATISNDGATIMKLLEIIHPAAKTLVDIAKSQDAEVGDGTTSVVLLAGEFLKQVKPFVEEGVHPRVIIKAIRKALQLCMEKINEMAVQIVEQSKDQQRALLEKCAATAMSSKLIHQQKDFFSRIVVDAVLSLDELLPLNMIGIKKVTGGSLEESQLVSGVAFKKTFSYAGFEMAPKSYDNCKIALLNIELELKAERDNAEIRVDNVKEYQKVVDAEWQILYNKLAKIHESGANVVLSKLPIGDVATQYFADRDIFCAGRVPEEDLKRTMKACGGAVMTTANDIKPNVLGLCEHFEERQVGGERFNLFQGCPNAKTSTLILRGGAEQFLEETERSLHDAIMIVRRTIKHDSVVAGGGAIEMELSKLLRDYSRTIAGKEQLLIAAIAKGLEIIPRQLCDNAGFDATNILNKLRQKHAQGGQWYGVDINKEDISDNYEQCVWEPSIIKINALTAAAEAACMILSVDETIKSPKAGEPPMAGGGMGMGRGMGRPM
B2: CG4364, endogenous in S2 cells (protein, UniProt Q9VL96 1-627)
chain: MRRPKKYESGEATQYISRRAALRKLQLSLNDFRRLCILKGVYPREPKHRRRAQKGSSEIKVLYHTKDIRFLLHESIVWTLRDYKIFAKKSNRDRAIKDFRNLKRRLALFPEIKLDHIVKERYPTFIDALKDLDDCLTLLFLFSTFPSLHLIPREQSNLCRRLTIEFLHYVIASKSLRKVFISIKGYYFQAEIKGQKVTWIVPHYYPFKPQSRQEVDFKVMSIFVEFYTIMLGFTNFRLFHGLNLAYPPQFPSSVLQDSEESLKDEASFVSDRIAALNFELLRTDKVQEDEEELDIDMELLEQDGDSKRIIKMKQEAQEVSRLRTLFKGLKFFINREVPREPLVILIRSFGGKVSWDSSIFAGSTYDEGDETITHQIVDRPSITTQYISRDYIQPQWVFDCVNQRQLLPTNKYFIGETLPPHLSPFVDSKRDSYIPPEEKALLDPSLIETHAQSDDDSEDEAQEEEETVDQELLDAQLQLAYQQETAEYKKYGGPDGVNEDEEDPDDEDDNEDDDEEEEELDEKTKRLQEEKQKMSVQSGKVHKVNKRQVHKAEVDEHRLQARMVKPRHRNLFRKLIREKQTKEKEEWLLRKKRRTIEANEKEARKTAKREARKEAAAAAAKASKLGK
B3: HSP26, endogenous in S2 cells (protein, UniProt P02517 1-208)
chain: MSLSTLLSLVDELQEPRSPIYELGLGLHPHSRYVLPLGTQQRRSINGCPCASPICPSSPAGQVLALRREMANRNDIHWPATAHVGKDGFQVCMDVAQFKPSELNVKVVDDSILVEGKHEERQDDHGHIMRHFVRRYKVPDGYKAEQVVSQLSSDGVLTVSIPKPQAVEDKSKERIIQIQQVGPAHLNVKANESEVKGKENGAPNGKDK
B4: CCT2, endogenous in S2 cells (protein, UniProt Q9W392 1-535)
chain: MEMSLNPVRVLKNEAQEEKAEMARLSSFIGAIAIGDLVKSTLGPKGMDKILVATGRNAGHVEVTNDGATILRAVGVDNPAAKILVDMSRVQDEEVGDGTTSVTVLASELLREAEKLVEQKLHPQIIVSGWRQATQVALEALTAAAQDNSSSDEKFRNDLLNIARTTLSSKILHQHKDFFANLAVDAVMRLKGSGELKSIQIIKKSGGTLGDSFLDEGFLLDKKPGVHQPQRIENARILIANTPMDTDKIKVFGSSIKVDSLAKIADLEMAEKEKMKEKVDKILKHKCNVFINRQLIYNYPEQLFADARVMSIEHADFDGIERLAYCTGGEIVSTFENPSLVKLGECDVIEQVMIGEDTLLRFSGVKLGEACTIVIRGATQQILDEADRSLHDALCVLAATVKESRIIFGGGCSEALMATAVLKKAAETPGKEAIAIEAFARALLSLPTAIADNAGYDSAQLVSELRAGHAQGKQTLGLDMELGKVADVRELGITESFAVKRQVLMSASEAAEMILRVDNIIRCAPRRRVPDRGYC

The test addresses HA-EGFP-NtFT4 (tobacco (Nicotiana tabacum)). The test can be described thus: affinity purification with mass spectrometry; HA-EGFP-NtFT4 precipitated with magnetic anti-HA beads from combined cytosolic and nuclear extracts of transiently transfected S2 cells, acidic elution, LC-MS/MS of eluates and gel bands; HA-EGFP as reference.
For the molecule B1, the binding entry was “binds”.

On to B2, for which the binding result is “binds”.

For B3, the binding result is reported as “binds”.

As to B4, the binding result is “binds”.
